Source: article PMC9391581
For at least one entry, the source does not settle the construct or the ends of the probe. Results from cells or extracts need not show a direct contact.

The chains behind the UniProt entries cited, without tags or fusion partners. Residues count along the entry.
UniProt P08047, 2-785: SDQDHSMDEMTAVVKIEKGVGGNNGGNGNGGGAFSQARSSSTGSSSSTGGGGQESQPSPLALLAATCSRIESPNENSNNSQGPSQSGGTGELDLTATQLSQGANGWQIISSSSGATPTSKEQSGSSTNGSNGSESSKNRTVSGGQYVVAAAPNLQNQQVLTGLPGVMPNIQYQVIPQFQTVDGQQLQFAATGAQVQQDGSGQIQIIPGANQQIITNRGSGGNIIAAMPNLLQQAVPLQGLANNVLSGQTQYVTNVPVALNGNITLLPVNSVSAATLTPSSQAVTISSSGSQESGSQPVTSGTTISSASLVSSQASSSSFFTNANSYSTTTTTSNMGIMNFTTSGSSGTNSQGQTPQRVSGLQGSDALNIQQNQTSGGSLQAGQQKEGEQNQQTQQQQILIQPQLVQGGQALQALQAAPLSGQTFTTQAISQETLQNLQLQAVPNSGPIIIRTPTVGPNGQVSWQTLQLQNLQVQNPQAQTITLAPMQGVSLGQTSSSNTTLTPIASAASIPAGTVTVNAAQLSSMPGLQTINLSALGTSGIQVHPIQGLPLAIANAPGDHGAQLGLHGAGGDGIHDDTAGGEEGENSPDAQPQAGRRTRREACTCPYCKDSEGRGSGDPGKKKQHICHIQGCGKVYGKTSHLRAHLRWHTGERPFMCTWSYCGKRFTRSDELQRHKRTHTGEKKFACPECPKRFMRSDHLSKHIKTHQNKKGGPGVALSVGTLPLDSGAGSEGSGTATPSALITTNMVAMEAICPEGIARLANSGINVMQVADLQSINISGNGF

Columns and labels:
Assay in all cases: EMSA supershift
[1] = test system: 3xFLAG-KLF4 (human); conditions: anti-FLAG; EMSA: 10 mM Tris-HCl pH 7.5, 53 mM NaCl, 1 mM DTT, 0.01% NP40, 5% glycerol, protein inhibitors, RT 30 min; protein in an extract; residues 1-479; protein details: 3xFLAG; label: 32P 5' end
[2] = test system: 3xFLAG-KLF4 K409Q (human); conditions: anti-FLAG; EMSA: 10 mM Tris-HCl pH 7.5, 53 mM NaCl, 1 mM DTT, 0.01% NP40, 5% glycerol, protein inhibitors, RT 30 min; protein in an extract; residues 1-479; protein details: 3xFLAG; label: 32P 5' end
[3] = molecular target: Sp1 (endogenous) (human) (UniProt P08047); conditions: anti-Sp1; EMSA: 10 mM Tris-HCl pH 7.5, 53 mM NaCl, 1 mM DTT, 0.01% NP40, 5% glycerol, protein inhibitors, RT 30 min; protein in an extract; label: 32P 5' end

Measured: binding result

GTGGCCTGGGCGGGACTGGG (double strand) [KLF4 consensus probe]
binds: [1] | [2] | [3]
